Test system: abdominal aortic aneurysm
Experiment: Regression of established abdominal aortic aneurysm, administration from Day 7 (Example 3)
Assay type: in vivo, rat
Experimental: SD-male rats of 4 weeks old (70 to 90 G) were used. The rats were subjected to the above-described abdominal aortic aneurysm induction treatment. On Day 7, the abdomen of the rat was opened to confirm the occurrence of an abdominal aortic aneurysm, the vessel diameter was measured, and then the abdomen was closed. Subsequently, a control group was fed normal feed and water, while a tricaprin administration group was fed tricaprin in an amount of 1,145 MG/KG/day in addition to the normal feed.
Seven days after the abdominal closure (Day 14 after the abdominal aortic aneurysm induction treatment), the abdomen was opened again, and the blood vessel diameter was measured. Some rats of the control group were not subjected to laparotomy on Day 14 and continued to be fed normal feed and water. The amount of the neutral fats in the blood vessel, the amount of lipids in the blood, the blood glucose level, and the body weight were measured from the day when the abdominal aortic aneurysm induction treatment was performed.
FIGS. 3(A), 3(B), and 3(C) show the control group (depicted as “CONTROL”), and FIGS. 3(D), 3(E), and 3(F) show the tricaprin administration group (depicted as “C10-TG”).
Photographs under “DAY 0” are photographs taken when the abdominal aortic aneurysm induction treatment was performed (FIG. 3(A) and FIG. 3(D)). Photographs under “DAY 7” are photographs taken at the time of laparotomy performed 7 days after the abdominal aortic aneurysm induction treatment (FIG. 3(B) and FIG. 3(E)). […] Until this time point, tricaprin had not been administered yet to the rats of the tricaprin administration group.

CCCCCCCCCC(=O)OCC(COC(=O)CCCCCCCCC)OC(=O)CCCCCCCCC [Tricaprin, tricaprin]
no difference: Blood glucose level versus control group | Cholesterol level versus control group | Neutral fats in blood versus control group

From patent US20260207537A1, “PHARMACEUTICAL COMPOSITION FOR PREVENTION AND TREATMENT OF AORTIC ANEURYSM, AND PROCESSED FOOD” (priority 2020, published 2026)
